The other results are listed elsewhere or left out.

Amino acid sequences for entries named in this document (tags omitted). A change or cut given only in a name is not applied to a line headed by its entry.
UniProt Q7RTV0, whole entry, looked up: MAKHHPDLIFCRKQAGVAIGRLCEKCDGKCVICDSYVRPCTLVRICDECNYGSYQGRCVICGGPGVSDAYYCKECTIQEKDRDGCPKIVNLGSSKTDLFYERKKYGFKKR
UniProt Q969N2: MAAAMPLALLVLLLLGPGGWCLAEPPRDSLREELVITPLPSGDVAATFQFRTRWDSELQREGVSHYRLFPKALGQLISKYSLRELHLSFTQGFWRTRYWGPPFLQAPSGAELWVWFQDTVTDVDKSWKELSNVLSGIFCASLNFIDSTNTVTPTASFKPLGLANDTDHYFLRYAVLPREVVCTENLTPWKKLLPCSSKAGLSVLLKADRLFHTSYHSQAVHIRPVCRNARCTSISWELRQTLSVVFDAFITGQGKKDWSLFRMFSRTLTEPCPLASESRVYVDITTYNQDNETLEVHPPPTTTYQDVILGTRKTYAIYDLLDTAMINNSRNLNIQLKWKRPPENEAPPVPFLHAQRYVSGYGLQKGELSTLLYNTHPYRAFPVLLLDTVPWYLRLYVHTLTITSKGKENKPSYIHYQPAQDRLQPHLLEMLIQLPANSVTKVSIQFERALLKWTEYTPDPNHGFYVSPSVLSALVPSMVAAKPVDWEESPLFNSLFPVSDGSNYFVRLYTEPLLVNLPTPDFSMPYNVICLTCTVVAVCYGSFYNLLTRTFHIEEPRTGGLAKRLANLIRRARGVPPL
UniProt P14618, whole entry, looked up: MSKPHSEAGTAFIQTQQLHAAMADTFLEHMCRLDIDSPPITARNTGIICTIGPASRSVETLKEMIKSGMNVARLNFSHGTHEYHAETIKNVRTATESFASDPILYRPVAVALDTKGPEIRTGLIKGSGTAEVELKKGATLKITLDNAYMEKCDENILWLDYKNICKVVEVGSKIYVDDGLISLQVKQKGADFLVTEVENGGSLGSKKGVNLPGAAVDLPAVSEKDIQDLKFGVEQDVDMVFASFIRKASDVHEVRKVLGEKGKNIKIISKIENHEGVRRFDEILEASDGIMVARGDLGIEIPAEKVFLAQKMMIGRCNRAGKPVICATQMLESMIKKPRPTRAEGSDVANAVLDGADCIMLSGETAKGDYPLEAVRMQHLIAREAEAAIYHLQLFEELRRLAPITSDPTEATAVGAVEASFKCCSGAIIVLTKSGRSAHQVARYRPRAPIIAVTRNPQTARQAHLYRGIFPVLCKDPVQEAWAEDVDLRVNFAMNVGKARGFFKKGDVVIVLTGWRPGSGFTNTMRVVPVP
UniProt Q8TBX8: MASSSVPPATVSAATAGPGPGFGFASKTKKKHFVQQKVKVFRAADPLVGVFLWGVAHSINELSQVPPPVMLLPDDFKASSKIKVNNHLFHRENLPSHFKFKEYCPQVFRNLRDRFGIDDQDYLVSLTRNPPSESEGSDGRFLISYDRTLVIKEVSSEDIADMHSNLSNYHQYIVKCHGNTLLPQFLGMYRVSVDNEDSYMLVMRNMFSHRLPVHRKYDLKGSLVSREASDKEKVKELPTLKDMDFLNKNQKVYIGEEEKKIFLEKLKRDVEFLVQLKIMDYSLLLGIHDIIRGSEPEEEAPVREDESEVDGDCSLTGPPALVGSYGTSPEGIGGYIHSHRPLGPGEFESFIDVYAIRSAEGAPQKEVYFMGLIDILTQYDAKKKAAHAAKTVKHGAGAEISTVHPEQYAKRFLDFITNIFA
UniProt P27986, whole entry, looked up: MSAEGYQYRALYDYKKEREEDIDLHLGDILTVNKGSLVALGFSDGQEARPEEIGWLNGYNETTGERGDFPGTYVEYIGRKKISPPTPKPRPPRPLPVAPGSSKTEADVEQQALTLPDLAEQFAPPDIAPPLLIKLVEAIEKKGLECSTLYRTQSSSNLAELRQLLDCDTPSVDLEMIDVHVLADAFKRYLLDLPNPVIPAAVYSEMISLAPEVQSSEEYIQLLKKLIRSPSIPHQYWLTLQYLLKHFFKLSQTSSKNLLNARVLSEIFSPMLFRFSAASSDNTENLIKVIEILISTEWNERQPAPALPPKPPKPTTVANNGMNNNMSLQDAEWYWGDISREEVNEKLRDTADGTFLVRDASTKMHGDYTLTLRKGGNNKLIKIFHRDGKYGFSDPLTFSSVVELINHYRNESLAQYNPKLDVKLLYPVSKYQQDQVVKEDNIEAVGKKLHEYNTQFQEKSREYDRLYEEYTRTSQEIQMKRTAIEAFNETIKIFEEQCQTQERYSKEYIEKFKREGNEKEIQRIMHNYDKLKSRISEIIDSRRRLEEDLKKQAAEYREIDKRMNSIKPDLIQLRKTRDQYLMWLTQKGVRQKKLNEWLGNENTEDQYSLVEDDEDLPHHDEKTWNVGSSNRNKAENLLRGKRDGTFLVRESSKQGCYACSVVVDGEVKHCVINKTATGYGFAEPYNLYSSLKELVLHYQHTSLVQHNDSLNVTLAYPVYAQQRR
UniProt P48426: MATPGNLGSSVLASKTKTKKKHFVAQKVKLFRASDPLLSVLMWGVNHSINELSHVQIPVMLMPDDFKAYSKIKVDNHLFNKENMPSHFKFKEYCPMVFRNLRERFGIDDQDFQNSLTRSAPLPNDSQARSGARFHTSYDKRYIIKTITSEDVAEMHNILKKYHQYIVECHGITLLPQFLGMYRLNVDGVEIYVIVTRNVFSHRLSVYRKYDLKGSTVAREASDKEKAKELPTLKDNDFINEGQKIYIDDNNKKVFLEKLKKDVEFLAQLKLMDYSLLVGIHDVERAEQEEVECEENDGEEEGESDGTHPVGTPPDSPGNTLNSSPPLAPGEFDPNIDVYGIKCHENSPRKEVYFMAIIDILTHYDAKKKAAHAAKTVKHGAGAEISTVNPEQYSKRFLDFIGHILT
UniProt O43164: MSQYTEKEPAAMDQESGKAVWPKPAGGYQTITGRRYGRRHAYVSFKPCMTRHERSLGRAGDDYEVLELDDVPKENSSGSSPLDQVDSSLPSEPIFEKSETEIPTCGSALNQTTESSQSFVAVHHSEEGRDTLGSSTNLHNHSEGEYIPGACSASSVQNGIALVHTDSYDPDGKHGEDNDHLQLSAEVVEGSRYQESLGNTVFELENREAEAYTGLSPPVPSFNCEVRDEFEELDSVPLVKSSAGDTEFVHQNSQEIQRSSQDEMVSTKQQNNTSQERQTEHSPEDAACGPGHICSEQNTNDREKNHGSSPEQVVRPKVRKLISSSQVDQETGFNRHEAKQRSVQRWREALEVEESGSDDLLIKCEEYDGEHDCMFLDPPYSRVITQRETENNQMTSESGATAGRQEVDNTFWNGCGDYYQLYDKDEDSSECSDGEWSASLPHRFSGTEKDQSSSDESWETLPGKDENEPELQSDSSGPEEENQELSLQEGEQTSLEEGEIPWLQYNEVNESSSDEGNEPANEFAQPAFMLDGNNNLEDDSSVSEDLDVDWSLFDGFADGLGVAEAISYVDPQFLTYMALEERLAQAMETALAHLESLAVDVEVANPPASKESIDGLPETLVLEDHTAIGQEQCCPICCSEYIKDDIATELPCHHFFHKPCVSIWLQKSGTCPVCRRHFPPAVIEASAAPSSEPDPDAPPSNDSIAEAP
UniProt Q9Y2I7: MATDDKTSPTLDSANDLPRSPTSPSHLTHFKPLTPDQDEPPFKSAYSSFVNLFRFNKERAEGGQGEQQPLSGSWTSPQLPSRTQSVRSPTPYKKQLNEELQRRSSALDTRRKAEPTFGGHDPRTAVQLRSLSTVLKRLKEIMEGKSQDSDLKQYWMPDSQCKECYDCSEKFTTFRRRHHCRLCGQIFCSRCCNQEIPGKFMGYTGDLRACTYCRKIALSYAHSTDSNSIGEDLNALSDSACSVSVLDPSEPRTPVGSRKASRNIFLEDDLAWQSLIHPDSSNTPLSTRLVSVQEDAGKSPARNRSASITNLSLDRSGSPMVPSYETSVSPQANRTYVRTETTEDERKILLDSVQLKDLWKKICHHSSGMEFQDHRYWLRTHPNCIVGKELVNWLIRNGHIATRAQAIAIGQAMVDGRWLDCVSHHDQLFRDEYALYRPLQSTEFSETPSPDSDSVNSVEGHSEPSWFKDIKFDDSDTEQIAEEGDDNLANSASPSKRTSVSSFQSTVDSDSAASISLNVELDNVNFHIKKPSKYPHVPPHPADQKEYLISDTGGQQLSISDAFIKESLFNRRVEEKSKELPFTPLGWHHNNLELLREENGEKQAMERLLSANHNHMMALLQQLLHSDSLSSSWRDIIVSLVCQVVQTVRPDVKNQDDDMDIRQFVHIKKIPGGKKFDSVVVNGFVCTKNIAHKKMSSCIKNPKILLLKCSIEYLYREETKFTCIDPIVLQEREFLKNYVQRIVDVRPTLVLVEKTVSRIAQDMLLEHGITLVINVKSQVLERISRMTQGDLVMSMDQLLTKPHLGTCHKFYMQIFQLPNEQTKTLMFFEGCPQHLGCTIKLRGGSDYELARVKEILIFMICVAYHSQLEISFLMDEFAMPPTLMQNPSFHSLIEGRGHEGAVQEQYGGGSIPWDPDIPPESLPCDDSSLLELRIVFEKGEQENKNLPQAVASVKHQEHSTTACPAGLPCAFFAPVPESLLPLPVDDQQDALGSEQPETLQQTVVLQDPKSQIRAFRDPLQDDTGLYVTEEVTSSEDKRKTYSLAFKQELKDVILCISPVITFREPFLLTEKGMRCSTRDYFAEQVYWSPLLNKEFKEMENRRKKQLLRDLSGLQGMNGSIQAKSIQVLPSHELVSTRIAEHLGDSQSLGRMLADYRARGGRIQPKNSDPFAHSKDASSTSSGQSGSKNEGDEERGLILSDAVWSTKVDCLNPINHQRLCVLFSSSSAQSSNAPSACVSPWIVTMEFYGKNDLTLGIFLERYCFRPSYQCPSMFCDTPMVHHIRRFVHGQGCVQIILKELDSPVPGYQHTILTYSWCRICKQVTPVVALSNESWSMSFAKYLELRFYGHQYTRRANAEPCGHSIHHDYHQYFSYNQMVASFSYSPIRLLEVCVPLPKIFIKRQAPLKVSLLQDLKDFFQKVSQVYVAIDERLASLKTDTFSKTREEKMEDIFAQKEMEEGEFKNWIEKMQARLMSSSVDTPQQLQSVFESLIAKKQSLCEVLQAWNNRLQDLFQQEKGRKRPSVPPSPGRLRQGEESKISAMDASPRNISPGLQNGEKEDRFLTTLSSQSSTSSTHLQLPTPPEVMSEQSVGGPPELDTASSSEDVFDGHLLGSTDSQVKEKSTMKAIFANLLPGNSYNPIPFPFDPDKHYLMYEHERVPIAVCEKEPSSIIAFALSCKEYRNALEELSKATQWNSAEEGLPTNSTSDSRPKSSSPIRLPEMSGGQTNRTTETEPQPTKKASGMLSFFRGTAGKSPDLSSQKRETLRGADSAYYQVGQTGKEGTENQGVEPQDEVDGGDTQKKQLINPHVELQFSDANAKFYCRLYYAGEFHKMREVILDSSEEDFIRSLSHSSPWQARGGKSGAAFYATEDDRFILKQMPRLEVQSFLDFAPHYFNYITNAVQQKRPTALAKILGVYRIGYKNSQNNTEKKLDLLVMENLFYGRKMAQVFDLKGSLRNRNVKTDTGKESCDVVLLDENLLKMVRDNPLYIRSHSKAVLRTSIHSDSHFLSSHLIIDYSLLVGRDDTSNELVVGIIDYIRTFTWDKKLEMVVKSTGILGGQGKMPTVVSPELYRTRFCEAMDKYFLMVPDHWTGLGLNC
UniProt Q8TCG2: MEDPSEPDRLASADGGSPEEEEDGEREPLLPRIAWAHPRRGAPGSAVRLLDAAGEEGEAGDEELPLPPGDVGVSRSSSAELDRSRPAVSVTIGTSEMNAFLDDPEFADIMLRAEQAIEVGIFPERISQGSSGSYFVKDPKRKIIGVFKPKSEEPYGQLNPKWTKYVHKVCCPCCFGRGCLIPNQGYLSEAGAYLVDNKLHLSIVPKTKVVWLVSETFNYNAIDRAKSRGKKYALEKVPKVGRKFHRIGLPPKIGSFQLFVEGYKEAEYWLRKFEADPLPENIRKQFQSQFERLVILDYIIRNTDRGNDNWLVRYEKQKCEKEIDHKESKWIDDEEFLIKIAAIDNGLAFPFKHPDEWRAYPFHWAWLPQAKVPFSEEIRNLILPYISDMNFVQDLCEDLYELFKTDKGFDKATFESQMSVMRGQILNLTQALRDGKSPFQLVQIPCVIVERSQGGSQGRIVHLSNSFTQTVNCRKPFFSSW
UniProt P78356: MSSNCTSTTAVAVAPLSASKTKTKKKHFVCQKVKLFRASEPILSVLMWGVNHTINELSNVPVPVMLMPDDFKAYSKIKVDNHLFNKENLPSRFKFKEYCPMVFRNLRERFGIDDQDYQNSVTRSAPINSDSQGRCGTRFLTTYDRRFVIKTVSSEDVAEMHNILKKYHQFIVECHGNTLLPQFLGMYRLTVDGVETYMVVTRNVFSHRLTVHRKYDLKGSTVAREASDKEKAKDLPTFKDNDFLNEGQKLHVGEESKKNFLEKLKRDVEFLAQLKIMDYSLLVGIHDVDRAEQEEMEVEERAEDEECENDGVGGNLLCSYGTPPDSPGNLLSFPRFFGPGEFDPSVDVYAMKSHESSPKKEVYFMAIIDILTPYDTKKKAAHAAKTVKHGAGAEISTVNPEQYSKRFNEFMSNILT

Compound in this experiment: CNC(=O)C1=CC=CC=C1NC2=NC(=NC=C2Cl)NC3=C(C=C(C=C3)N4CCOCC4)OC
The experiment is described as follows: log2 fold change, soluble protein after heating vs DMSO (PISA); higher = thermal stabilisation; K562 cells, 10 uM, 30 min; active = over 0.2 and 3.5 SD of the protein, either way, in both replicates (recomputed). In short, it runs like this: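 For each measurement, 10 μM compound was applied for 30 min to K562 cells at 2×10^6 cells/mL. Aliquots were heated for 3 min across 48°C-58°C, pooled, and extracted in PBS with 0.5% NP-40 at 4°C; the supernatant after 21,000xg for 90 min was soluble protein. This was quantified by TMTpro 16plex LC-MS/MS with channel sums equalised, and thermal stability was reported relative to control samples from duplicates, on a log2 fold-change scale.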
Turning to PLD3 (UniProt Q8IV08), the log2 fold change is inactive: 0.016.
The value for PHF5A (UniProt Q7RTV0) was inactive: 0.05; that for PLA2G15 (UniProt Q8NCC3) was inactive: 0.065.
The value for PIGT (UniProt Q969N2) was inactive: 0.029.
Turning to PISD (UniProt Q9UG56), the log2 fold change was inactive: 0.026.
With PIK3C3 (UniProt Q8NEB9) the figure was inactive: -0.003; with PHF19 isoform 2 (UniProt Q5T6S3), inactive: -0.107; with PKM (UniProt P14618), inactive: -0.028.
Consider PIP4K2C (UniProt Q8TBX8), for which the log2 fold change was inactive: 0.371.
The value for PEX5 isoform 4 (UniProt P50542) was inactive: 0.178; that for PIK3R1 (UniProt P27986) was inactive: -0.014.
With PEX7 (UniProt O00628) the figure was inactive: 0.005; with PIP4K2A (UniProt P48426), inactive: 0.084.
As for PHKA1 (UniProt P46020), the log2 fold change was inactive: 0.101.
With PJA2 (UniProt O43164) the figure was inactive: -0.013; with PIKFYVE (UniProt Q9Y2I7), inactive: 0.009.
With PI4K2B (UniProt Q8TCG2) the figure was inactive: -0.016; with PLCG1 isoform 2 (UniProt P19174), inactive: -0.048; with PGGT1B (UniProt P53609), inactive: -0.025.
With PIR (UniProt O00625) the figure was inactive: -0.002; with PHYKPL (UniProt Q8IUZ5), inactive: 0.016; with PHKA2 (UniProt P46019), inactive: 0.135.
For PIP4K2B (UniProt P78356), the log2 fold change was inactive: 0.179.

The values above are taken from the supplement of paper PMC10849652.
